According to publication doi:10.1101/2020.04.19.049296:
No constants are given. Whether binding was seen depends on the method and setting. Binding seen in cells or lysates may run through a third protein. A result given as binding can be weak or reduced; the word gives no strength.

Amino acid sequences for entries named in this document (tags omitted). A change or cut given only in a name is not applied to a line headed by its entry.
UniProt Q0JMY8: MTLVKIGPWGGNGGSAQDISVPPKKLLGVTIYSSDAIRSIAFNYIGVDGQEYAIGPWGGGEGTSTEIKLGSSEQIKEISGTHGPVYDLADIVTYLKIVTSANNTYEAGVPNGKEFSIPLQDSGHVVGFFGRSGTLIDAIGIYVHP
UniProt Q0JQF7: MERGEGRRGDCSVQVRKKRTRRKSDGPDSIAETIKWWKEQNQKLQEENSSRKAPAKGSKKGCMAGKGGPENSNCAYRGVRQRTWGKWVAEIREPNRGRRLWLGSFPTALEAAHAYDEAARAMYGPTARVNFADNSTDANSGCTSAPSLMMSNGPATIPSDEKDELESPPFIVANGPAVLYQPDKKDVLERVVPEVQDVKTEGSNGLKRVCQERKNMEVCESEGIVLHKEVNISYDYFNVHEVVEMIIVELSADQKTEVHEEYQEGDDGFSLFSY

Molecular target: OsSalT-cVenus (rice) (UniProt Q0JMY8)
Assay: split reporter

binding | Substance
binds | OsDREB2A-nVenus (from UniProt Q0JQF7 1-274)
binds | OsNAC1-nVenus (from UniProt Q8H0I5)
